In all, about 31,000 sequences went through this assay and about 1,400 (4.5%) were called active.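 Rule for the calls: active = median seed-adjusted z-score above 1 or below -1; inactive = the rest.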 Some of the results follow.

The nature of the assay: Novel Modifiers of Survival Motor Neuron (SMN) Protein: Gene Identification via Genome-wide siRNA Screen.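 Note: luminescence tracks full-length SMN protein made from the SMN2 reporter.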 As to conditions: HEK293T SMN2-luciferase reporter, siRNA knockdown, 72 h; actives lie on both sides. Put shortly:
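Genome-wide siRNA screen (10418 genes, 3 siRNAs each, 1 pmol per well) by reverse transfection in HEK293T cells stably carrying an SMN2-luciferase reporter; luminescence after 72 hours, normalized to negative-control siRNA, log10-transformed, MAD-scored.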
Turning to CCGAGUAUACUACAAGGAATT against RAB32, the median seed-adjusted z-score is inactive: -0.112.
The same measure for GUUCGGACCUUAUCAGAAATT against LATS2: inactive: -0.245; for GCUCAAUCCCAAUACCCUUTT against MAP3K13: inactive: -0.121.
For GGAGCUACAGUUUCACCUATT against PCDHGB3, the median seed-adjusted z-score is inactive: 0.275.
The same measure for GCCUGGUUAUAUAACCGGATT against EP300: inactive: -0.2.
In the case of UAAACAACAGGAGCCUUUUTT against RFNG it was inactive: 0; in that of CCUGUUUGAUGACAGCGAATT against PPARGC1A, inactive: -0.0953.
The same measure for CUACCAGCAUGUGAUGUUUTT against CH25H: inactive: -0.264.
Consider GAAUUGACAAAGUUAGAUATT against SYNM, for which the median seed-adjusted z-score was inactive: 0.104.
In the case of GCAUGAAUGCAACCUGAUUTT against DDX55 it was inactive: 0.507.
The same measure for AGGAGAUGAUGGACGCGCATT against NDUFB7: inactive: -0.379; for GCAAAACUACGGACACUUATT against HOXD3: inactive: 0.233.
In the case of GACUGUCGUCGACAAUAUUTT against SPO11 it was inactive: 0.475.
Regarding GCUGCGGCAUGAUCACUAATT against LBXCOR1, the median seed-adjusted z-score was inactive: 0.0938.
The same measure for CCCUCUCUUUGGACCGCAATT against ATP6V0E1: inactive: -0.0658.
In the case of GGCUUAAGGUCAACCUGCUTT against GPR31 it was inactive: -0.0381.
In the case of GAGUUUGAGUUCUAAUUCATT against ZNF619 it was inactive: -0.536; in that of CUUGAUUGUUGGAACCAAATT against UBE2N, inactive: 0.995.
On to GGAAGGUGAUUAUAAAGAATT against TTC7B, for which the median seed-adjusted z-score was inactive: 0.0338.
In the case of GGAUGUUGUUCGUAGGAGATT against SNTG2 it was inactive: 0.603; in that of GAAUGAGCCUCUUAAAAUATT against CLDN23, inactive: 0.817; in that of GGAAUCGUGGAGAAUAUGATT against NUBP2, inactive: -0.21.
Turning to CAAGGACUUUUGUAACCGUTT against PKNOX2, the median seed-adjusted z-score is inactive: 0.0976.
Consider GGCCUUCAGUAAAGGUUGATT against ARNTL, for which the median seed-adjusted z-score was inactive: 0.0838.
The same measure for CAAGUACAGUAAUGCCGAUTT against ZFHX3: inactive: 0.045; for UGCUGACCCUAAUCCCUUATT against ETV2: inactive: 0.
Turning to CGAUUUGAGCAACUUCUAUTT against SDHB, the median seed-adjusted z-score is inactive: 0.0872.
The same measure for GAAGGAGCAGGAUUACCAATT against TMED4: inactive: -0.895; for CUCCUACUCUGACUCCCAATT against NOS1: inactive: 0.0195.
In the case of CAUGAAGACUAUACCCUGATT against CYP8B1 it was inactive: 0; in that of GCAUGAUCUUGGAUUCUGATT against LIG3, inactive: -0.0498.
In the case of GGAGGUUAAAGUGAAGAUUTT against MORF4L2 it was inactive: 0.389; in that of CGCAAGUACUAUUACAAGUTT against ZNF335, inactive: -0.305.
GGUCUACGUGAACAACUCUTT against KCNMB4: the median seed-adjusted z-score is inactive: 0.
In the case of GGGAUGAAGUAUCAUGUCATT against ZNF512 it was inactive: -0.675; in that of ACCGAUUCCUGAACCCUGATT against PTGIS, inactive: 0.
The same measure for GGUGAAAGAAGGUCGAGUATT against PPP3CB: inactive: 0.0225.
Take GGAGCUACUUAAUCGGGAUTT against ANGEL1: the median seed-adjusted z-score was inactive: -0.332.
The same measure for GGAUGGAGGAAGUUAUUAATT against RLN2: inactive: 0.877; for CAGGAGCAGUUAGACUUAATT against DNALI1: inactive: 0.699; for GCUUCGUCAUAAUACUCCATT against STT3A: inactive: 0.
The same measure for GGGAAUUACCAGUUACGGATT against TMPRSS12: inactive: 0.0961.
In the case of CGAUGUAUUGUUAAUCGUATT against USP9Y it was inactive: 0.012; in that of GGACCUAUUCGUCAAAUCATT against SF3B14, active: -1.26; in that of GAAACCCGGUUACAAUGGATT against SPAM1, inactive: 0.518.
Consider GCAUUAACCCUUACCACUATT against SMAD9, for which the median seed-adjusted z-score is inactive: -0.492.
The same measure for GCACAAGUUUUGAUUCGGATT against CD86: inactive: 0; for CCCGUAACCUAAUUCCUAUTT against PRKCG: inactive: 0.
Turning to GGUGUGAAGUUCCUCAGAATT against DGKD, the median seed-adjusted z-score is inactive: 0.35.
In the case of AGAACAUUCCGGGAAAUCATT against MAPK15, the median seed-adjusted z-score was inactive: 0.0724.
In the case of GGGUGGAUGUCAUGCAGCATT against SORBS3 it was inactive: 0.106; in that of CCACGGUGAUAACAGACAUTT against ALDH8A1, inactive: 0.0628.
As to GGUGGAACCUAGAGAUGAATT against NCOR1, the median seed-adjusted z-score was inactive: 0.0767.
Consider GGAUAGUCAGCUACAUCGATT against SDR42E1, for which the median seed-adjusted z-score is inactive: -0.109.
In the case of GGUCAGUGACCAAAAGGAATT against NFATC2 it was inactive: 0.183; in that of CACCGAGGGAGAAAUCUAATT against ZNF136, inactive: 0.229.
As to UGGAGAGACUUAUCCAAGATT against CKMT1B, the median seed-adjusted z-score was inactive: -0.929.
As for CCGUGACCAAUGUCAAUGATT against CYP27C1, the median seed-adjusted z-score was inactive: 0.0462.
In the case of CCUCCCACCUGAAUGAUCATT against ZIK1 it was inactive: -0.0627.
Regarding CAAUUACAACGGAGUCAAATT against REG1A, the median seed-adjusted z-score is inactive: 0.596.
In the case of GCUCUGUGAUACCCAAUAATT against TK2 it was inactive: 0.
In the case of CGAAGUACAUUGGAACGUATT against LRRC3 it was inactive: -0.0448; in that of GGCACAACAGAGUUAUGAATT against FNBP1L, inactive: -0.0815; in that of GGAGUACGCUCAACAAGAUTT against CNP, inactive: -0.116.
With CAAACGUGGACUGUCCAAATT against CA4, the median seed-adjusted z-score is inactive: 0.0549.
The same measure for CUAUAUCUCCAACACUUUUTT against SMARCD3: inactive: 0.247.
In the case of GAAUAACCGUAAACCAGAUTT against MEF2C it was inactive: -0.632; in that of CAGGGAAAAGUGACAGUGATT against PPP1R14C, inactive: -0.316; in that of GCCUCGUCACAACAACAGATT against IL2RA, inactive: 0.587.
Turning to AGGAGCACCUGAAGAAAUCTT against PDLIM7, the median seed-adjusted z-score was inactive: 0.548.
The same measure for AUAAAUUCCUGAUUGCUAATT against CXCL6: inactive: 0.802; for GGACAAGGAGAACAUAUUUTT against ZNF775: inactive: 0.00364; for AGGUGUUCAACGACAUGAATT against CFL1: inactive: 0.685.
The same measure for GGAAACCUCCAGUUCCGUUTT against UBA2: inactive: 0.694.
The same measure for UAACUUCGAUGACACCAUUTT against TXNDC5: inactive: -0.753; for CAACAUGCCCAUUCGCUUUTT against ADIPOQ: inactive: 0.557.
With GGAUGUUAAUAAUCAGUUATT against BRDT, the median seed-adjusted z-score is inactive: -0.357.
As to GGAGAUCUUGCAUCGAGAATT against ATP2C1, the median seed-adjusted z-score was inactive: -0.112.
The same measure for AGUGGGUGCUGAACCAUGATT against FES: inactive: 0.402; for GAUACUGACUACGACAAUUTT against PAEP: inactive: -0.0632.
In the case of AGGAAUUCAUGGACAAGAATT against HNMT it was inactive: 0.336; in that of GUAAACCACCUGCACCUAATT against TIAL1, inactive: -0.985.
GGGUGUAAUUCAUAAGGGUTT against PSMD1: the median seed-adjusted z-score is active: -1.61.
CAUGGGACGUGUGAACUAUTT against GLB1: the median seed-adjusted z-score was inactive: -0.543.
The same measure for GCUCUUUGAGCGCAUGUUATT against CAPN5: inactive: 0.535; for GGACCUCGGUAAUAUGGAATT against ALCAM: inactive: -0.743.
In the case of GGCGCAAACGGAAACAGCATT against SRPK3 it was inactive: -0.643; in that of GGUGAACCUUAGUACCUAATT against TP53, inactive: 0.214.
In the case of CCCUUUCAGUGCAACGAGUTT against ZNF2 it was inactive: -0.119; in that of GAAAUGACAUUAGCUGAUUTT against CLIC4, inactive: -0.498.
Take GGCUCAACUAUGACCGGAATT against PPFIA3: the median seed-adjusted z-score was inactive: -0.0669.
The same measure for GGUCUACAGUAAGCGGUCATT against SNRNP70: inactive: -0.405; for GCCUGUAUGUUUAUGGAGATT against LACE1: inactive: 0.166.
In the case of GGCACAGUACGAUGACAUUTT against KRT86 it was inactive: -0.689.
The same measure for CCACUUACCUUAUGUCAGUTT against CD27: inactive: 0.5.
Consider GGAGCUAUGAGGAUUUCAATT against HSD3B7, for which the median seed-adjusted z-score is inactive: -0.0819.
Turning to CCAUUAUCCGGGACUUCUATT against CLDN3, the median seed-adjusted z-score was inactive: -0.0833.
In the case of GGUUCCACCUGAAUGAGCATT against CAPNS1 it was inactive: 0.35.
The same measure for GGGCUUCAACGAGUACUUUTT against PRDM16: inactive: 0.185.
For the sequence GGUAAUGACUCCACAGGGATT against SNRPN, the median seed-adjusted z-score was inactive: -0.571.
The same measure for GAUAGACCCAGAUAUGUCATT against TAF2: inactive: -0.243; for GGAUCUGACGGGUGACAAATT against SPAG9: inactive: 0.0795.
Take GGGUAACAUUUGUCGAUCATT against ACP1: the median seed-adjusted z-score was inactive: -0.277.
The same measure for GGACUACAAAGUCGACCAATT against NDUFB10: inactive: -0.39; for CCCUGCUGCUUUGCCUACATT against CCL5: inactive: 0.11.
In the case of GAAUCUUGAUGAGUCUAUATT against KIF6 it was inactive: -0.0396; in that of GGAUAAGGACGACCAGAUUTT against HPCAL4, inactive: 0.282.

(Values after PubChem BioAssay AID1347426 (Functional Genomics Laboratory (NCATS/FGL), 2020).)
